Laboratory results reported in PubChem BioAssay AID248 (DTP/NCI, 2004).
The list is a part of this screen's results and no random one: it is rich in T/C values a quarter to a half above the control, in often repeated tests (any T/C) and in doses without a T/C. Other doses and runs of a compound stand elsewhere. T/C gives the treated animals as a percentage of the vehicle group. Some entries give survivors of the animals treated and no T/C: the source files T/C as zero there, which appears to mark a toxic dose or a test without result, not a measured value. Some survivor counts are full or nearly so, which does not show that the dose was tolerated: survival well below the control is almost never listed, so the zero probably covers shortened survival too. Survivors were counted at the toxicity check, usually on the fifth day, unless a day is given; later deaths do not show. Schedule codes are those of the source, read here as Q, the interval in days (D) or hours (H), X, the number of doses. Some schedules carry Z or #; the key to these is not given. For survival time, the PubChem record calls one and a half times the control and up active, and a quarter to a half above the control has no call in these data; cut-offs in other NCI protocols can differ. Some T/C values are followed by the survivors on the day toxicity was checked, most often the fifth; where none is given, no animal had died by that day. Some entries were tested several times; the values are given in rising order. Additions like (4×) give the number of equal values in this list.

System: L1210 leukemia ip in BDF1 mice, survival T/C
Assay: NCI In Vivo Anticancer Drug Screen. Data for tumor model L1210 Leukemia (intraperitoneal) in B6D2F1 (BDF1) mice
Conditions: T/C endpoint: mean survival time, higher T/C = longer survival
[1] = dose: 400.0 mg/kg/injection, schedule: Q04DX002 (ip), vehicle: Klucel (hydroxypropylcellulose) (HPC)
[2] = dose: 300.0 mg/kg/injection, schedule: Q01DX001 (ip), vehicle: saline
[3] = dose: 200.0 mg/kg/injection, schedule: Q01DX001 (ip), vehicle: saline
[4] = dose: 400.0 mg/kg/injection, schedule: Q01DX001 (ip), vehicle: saline
[5] = dose: 400.0 mg/kg/injection, schedule: Q01DX001 (ip), vehicle: saline with Tween-80
[6] = dose: 200.0 mg/kg/injection, schedule: Q04DX003 (ip), vehicle: Klucel (hydroxypropylcellulose) (HPC)
[7] = dose: 400.0 mg/kg/injection, schedule: Q04DX003 (ip), vehicle: Klucel (hydroxypropylcellulose) (HPC)
[8] = dose: 400.0 mg/kg/injection, schedule: Q01DX009 (ip), vehicle: saline with Tween-80
[9] = dose: 100.0 mg/kg/injection, schedule: Q01DX001 (ip), vehicle: saline
[10] = dose: 400.0 mg/kg/injection, schedule: Q01DX009 (ip), vehicle: Klucel (hydroxypropylcellulose) (HPC)
[11] = dose: 400.0 mg/kg/injection, schedule: Q01DX001 (ip), vehicle: carboxymethylcellulose (CMC)
[12] = dose: 200.0 mg/kg/injection, schedule: Q04DX002 (ip), vehicle: saline with Tween-80
[13] = dose: 400.0 mg/kg/injection, schedule: Q04DX002 (ip), vehicle: saline with Tween-80

C/C(=N/OC(=O)N(C)C)c1cccs1
survivor count (dose: 80.0 mg/kg/injection, schedule: Q01DX001 (ip), vehicle: other): 0 of 4 | survivor count (dose: 100.0 mg/kg/injection, schedule: Q01DX001 (ip), vehicle: other): 0 of 4 | survivor count (dose: 200.0 mg/kg/injection, schedule: Q01DX001 (ip), vehicle: other): 0 of 4 | survivor count (dose: 400.0 mg/kg/injection, schedule: Q01DX001 (ip), vehicle: other): 0 of 4

O=C(Nc1ccc([N+](=O)[O-])cn1)Nc1ccccc1F
T/C (dose: 100.0 mg/kg/injection, schedule: Q04DX002 (ip), vehicle: Klucel (hydroxypropylcellulose) (HPC)): 89, 98 (2×), 102 % of control | T/C (dose: 200.0 mg/kg/injection, schedule: Q04DX002 (ip), vehicle: Klucel (hydroxypropylcellulose) (HPC)): 100, 100 [2 of 3 alive], 115, 148 % of control | T/C [1]: 91 [2 of 3 alive], 104, 107, 108 % of control

COc1ccc(/C=N/NC(=O)CNC(=O)Nc2cccc(Cl)c2Cl)cc1
survivor count (dose: 200.0 mg/kg/injection, schedule: Q01DX009 (ip), vehicle: saline with Tween-80): 3 of 3

NC(N)=NC(N)=Nc1ccccc1CS
survivor count [2]: 0 of 6

Cc1cc(Cl)c(Cl)cc1NC(=O)Nc1ccccc1F
survivor count (dose: 200.0 mg/kg/injection, schedule: Q01DX009 (ip), vehicle: other): 5 of 6

O=C(O)CCCc1nccc2ccccc12
survivor count [2]: 2 of 6

CC(=O)/C(=C\c1ccccc1)CNC(C)(C)C
survivor count [3]: 0 of 3 | survivor count [4]: 0 of 3

CCOC(=O)c1cnc2ccccn2c1=O
survivor count [5]: 1 of 6 | survivor count (dose: 400.0 mg/kg/injection, schedule: Q04DX003 (ip), vehicle: saline): 3 of 6

COc1nccc2ccccc12
survivor count (dose: 400.0 mg/kg/injection, schedule: Q04DX003 (ip), vehicle: saline with Tween-80): 6 of 6

COc1ccc(OC)c(NC(=O)Oc2ccccc2C(N)=O)c1
survivor count [6]: 5 of 6 | survivor count [7]: 4 of 6

CCC(/C=C1\Sc2ccc(C)cc2N1CC)=C\c1sc2ccc(OC)cc2[n+]1CC
survivor count (dose: 8.0 mg/kg/injection, schedule: Q01DX001 (ip), vehicle: other): 0 of 6 | survivor count (dose: 9.5 mg/kg/injection, schedule: Q01DX001 (ip), vehicle: other): 0 of 6 | survivor count (dose: 19.0 mg/kg/injection, schedule: Q01DX001 (ip), vehicle: other): 0 of 6 | survivor count (dose: 38.0 mg/kg/injection, schedule: Q01DX001 (ip), vehicle: other): 0 of 6 | survivor count (dose: 75.0 mg/kg/injection, schedule: Q01DX001 (ip), vehicle: other): 0 of 6 | survivor count (dose: 150.0 mg/kg/injection, schedule: Q01DX001 (ip), vehicle: other): 0 of 6 | survivor count (dose: 300.0 mg/kg/injection, schedule: Q01DX001 (ip), vehicle: other): 0 of 6

CCCCNC(C)C1(O)Cc2c(O)c3c(c(O)c2C(OC2CC(N)C(O)C(C)O2)C1)C(=O)c1c(OC)cccc1C3=O (configuration not stated)
T/C (dose: 40.0 mg/kg/injection, schedule: Q01DX009 (ip), vehicle: water): 128 % of control | survivor count (dose: 160.0 mg/kg/injection, schedule: Q01DX009 (ip), vehicle: water): 6 of 6

Nc1cccnc1NCC(O)c1ccccc1 (configuration not stated)
survivor count [4]: 1 of 4

COc1ccc([N+](=O)[O-])cc1NS(=O)(=O)c1cccc([N+](=O)[O-])c1
survivor count [8]: 6 of 6

O=C(CCN1CCCCC1)c1ccc([N+](=O)[O-])cc1
survivor count [9]: 0 of 4 | survivor count [4]: 0 of 4

O=c1[nH][nH]c(=O)c2ccccc12
survivor count [10]: 6 of 6

O=C(O)CN(CC(=O)O)Cc1ccccc1
survivor count (dose: 80.0 mg/kg/injection, schedule: Q01DX001 (ip), vehicle: saline): 2 of 4 | survivor count [9]: 2 of 4 | survivor count [3]: 0 of 4 | survivor count [4]: 0 of 4

CCOCN1CCCC1
survivor count (dose: 200.0 mg/kg/injection, schedule: Q04DX003 (ip), vehicle: saline with Tween-80): 4 of 6 | survivor count [5]: 0 of 6

C[C@H](CCC[C@H](C)OS(=O)(=O)c1ccccc1)OS(=O)(=O)c1ccccc1
T/C (dose: 100.0 mg/kg/injection, schedule: Q01DX009 (ip), vehicle: saline with Tween-80): 127 and 133 % of control

N#Cc1c[nH]n2c(=S)ncnc12
survivor count [8]: 1 of 6

O=C1CCCC(=S)N1
survivor count (dose: 200.0 mg/kg/injection, schedule: Q01DX001 (ip), vehicle: carboxymethylcellulose (CMC)): 1 of 4 | survivor count [11]: 2 of 4

O=C(O)c1cc(Br)cc(Cl)c1Cl
survivor count [1]: 3 of 3

CCCCOP(=O)(OCCCC)N(C)c1ccccc1
survivor count [12]: 1 of 3 | survivor count [13]: 0 of 3

O=c1[nH]cnc2ccc([N+](=O)[O-])cc12
survivor count [6]: 3 of 6

Cc1ccc(NC2=CC(=O)c3ccccc3C2=O)cc1
survivor count (dose: 300.0 mg/kg/injection, schedule: Q01DX001 (ip), vehicle: carboxymethylcellulose (CMC)): 6 of 6

COC1CCC2CCN(C)C(Cc3ccc(Oc4ccc(CC5C6CC(OC)CCC6CCN5C)cc4)cc3)C2C1 (configuration not stated)
survivor count (dose: 1.56 mg/kg/injection, schedule: Q01DX009 (ip), vehicle: saline with Tween-80): 3 of 3 | survivor count (dose: 100.0 mg/kg/injection, schedule: Q04DX002 (ip), vehicle: saline with Tween-80): 0 of 3 | survivor count [12]: 0 of 3 | survivor count [13]: 0 of 3

Cc1ccc(NC(=S)Nc2ccccc2)cc1
survivor count [7]: 6 of 6

CCCCCCC/C(=N\N=C(N)N)c1ccc(O)cc1
survivor count (dose: 60.0 mg/kg/injection, schedule: Q01DX Z (ip), vehicle: carboxymethylcellulose (CMC)): 3 of 6 | survivor count (dose: 120.0 mg/kg/injection, schedule: Q01DX Z (ip), vehicle: carboxymethylcellulose (CMC)): 0 of 6 | survivor count (dose: 120.0 mg/kg/injection, schedule: Q01DX Z (oral), vehicle: carboxymethylcellulose (CMC)): 6 of 6 | survivor count (dose: 960.0 mg/kg/injection, schedule: Q01DX Z (oral), vehicle: carboxymethylcellulose (CMC)): 6 of 6

CN=C(NC)NN
survivor count (dose: 15.0 mg/kg/injection, schedule: Q01DX Z (ip), vehicle: methylcellulose (MC)): 6 of 6 | T/C (dose: 120.0 mg/kg/injection, schedule: Q01DX Z (ip), vehicle: methylcellulose (MC)): 145 % of control | survivor count (dose: 250.0 mg/kg/injection, schedule: Q01DX Z (oral), vehicle: methylcellulose (MC)): 2 of 6 | survivor count (dose: 500.0 mg/kg/injection, schedule: Q01DX Z (oral), vehicle: methylcellulose (MC)): 3 of 6 | survivor count (dose: 750.0 mg/kg/injection, schedule: Q01DX Z (oral), vehicle: methylcellulose (MC)): 3 of 6 | survivor count (dose: 1500.0 mg/kg/injection, schedule: Q01DX Z (oral), vehicle: methylcellulose (MC)): 1 of 6

Cn1nc(SCc2ccccc2)c(=O)n(C(c2ccccc2)c2ccccc2)c1=O
survivor count [11]: 4 of 4

COc1ccc2nc3ccccc3c(NCCNCCO)c2c1
survivor count (dose: 13.5 mg/kg/injection, schedule: Q01DX Z (ip), vehicle: carboxymethylcellulose (CMC)): 6 of 6 | survivor count (dose: 20.0 mg/kg/injection, schedule: Q01DX Z (ip), vehicle: carboxymethylcellulose (CMC)): 3 of 6 | survivor count [9]: 3 of 4 | survivor count [3]: 0 of 4 | survivor count [4]: 0 of 4

CCCCCCCCCCCCCC[n+]1cccc(C#N)c1
survivor count (dose: 75.0 mg/kg/injection, schedule: Q01DX001 (ip), vehicle: saline): 1 of 6 | survivor count (dose: 150.0 mg/kg/injection, schedule: Q01DX001 (ip), vehicle: saline): 1 of 6 | survivor count [2]: 1 of 6

c1ccc(COc2ccnc(SCc3ccccc3)n2)cc1
survivor count [10]: 6 of 6
